{"source": "PubChem BioAssay AID540276", "about": "(National Center for Advancing Translational Sciences (NCATS), 2011)", "note": "Where “and” joins values, the source holds several entries; their conditions need not be identical. Equal values may be shown once. In all, about 300,000 compounds went through this assay and about 5,400 (1.8%) were called active. The inconclusive results got no clear call from the source; some entries with a clear call stand among them for comparison. Calls come from the whole dose curve; tested in HEK293 cells. Where the call is inconclusive, the potency comes from a doubtful curve fit. % is set by controls: 0 for no effect and ±100 for the full control effect; potency is the fitted concentration of half-maximal effect.", "data": [{"experiment": "qHTS for inhibitors of binding or entry into cells for Marburg Virus", "settings": "Marburg virus pseudotyped entry inhibition, cell reporter; activity change, negative = inhibition: at 37.8 µM (top of the series) unless noted", "values": [{"smiles": "O=C(Nc1ccc2c(c1)OCO2)N1CCC(CO)(CC2CCCCO2)CC1", "note": "(stereo unspecified)", "Potency": "inconclusive: 35.5 µM [activator, single point]"}, {"smiles": "CCN1CCn2c3c(c4cc(C)ccc42)CCCC31", "note": "(stereo unspecified)", "Potency": "inconclusive: 3.55 µM [activator, partial curve, poor fit]"}, {"smiles": "CC(C)(C)c1ccc(OCc2ccc(C(=O)N/N=C/c3ccc(O)c(O)c3)cc2)cc1", "Potency": "inconclusive: 22.4 µM [inhibitor, single point]"}, {"smiles": "O=C(CSc1nnc2n1CCCN2)c1ccccc1", "Potency": "inconclusive: 11.2 µM [activator, partial curve]"}, {"smiles": "Nc1ccc2c(c1)oc1ccccc12", "Potency": "inconclusive: 0.1 µM [activator, full curve, poor fit]"}, {"smiles": "CCOc1ccccc1C1C(C(N)=O)=C(C)Nc2nc(-c3cccc(C)c3)nn21", "note": "(stereo unspecified)", "activity change, negative = inhibition": "inactive: -7.87%"}, {"smiles": "COc1ccc(Cl)cc1-n1c(C)cc(C(=O)OCC(=O)N2CC(=O)Nc3ccccc32)c1C", "Potency": "inconclusive: 20 µM [inhibitor, single point]"}, {"smiles": "CCC(c1nnnn1Cc1ccco1)N(Cc1cc2cc(C)cc(C)c2[nH]c1=O)CC1CCCO1", "note": "(stereo unspecified)", "Potency": "inactive and inconclusive: 4.47 µM [inhibitor, partial curve, poor fit]"}, {"smiles": "CC1CCCC(C)N1C(=O)Cn1c(SCC(=O)Nc2ccc3c(c2)OCO3)nc2ccccc21", "note": "(stereo unspecified)", "Potency": "inconclusive: 14.6 µM [inhibitor, partial curve, poor fit]"}, {"smiles": "Cc1ccc2c(CN3CCN(Cc4ccccc4Cl)CC3)cc(=O)oc2c1", "activity change, negative = inhibition": "inactive: 2.73% [at 46.1 µM]"}, {"smiles": "CC(=O)Nc1cc2c(cc1Br)-c1ccccc1C2", "Potency": "inconclusive: 4.47 µM [inhibitor, partial curve]"}, {"smiles": "COc1ccc(S(=O)(=O)N2CCCCC2)cc1NC(=O)CCNC(=O)c1ccc(Cl)cc1", "Potency": "inconclusive: 0.251 µM [inhibitor, full curve, poor fit]"}, {"smiles": "CCOC(=O)c1cnn(-c2ccccc2)c1-n1cccc1C(=O)C(=O)Nc1ccc(OC)cc1", "Potency": "inconclusive: 10 µM [inhibitor, partial curve, poor fit]"}, {"smiles": "CN1[C@@H](CC(=O)c2ccccc2)CCC[C@H]1C[C@H](O)c1ccccc1", "Potency": "inconclusive: 25.1 µM [inhibitor, partial curve] and inconclusive: 23.1 µM [inhibitor, partial curve, poor fit]"}, {"smiles": "Cc1cccc(N2CCC(NCc3c(C(=O)N4CCCCC4)nc4c(C)cccn34)CC2)c1", "Potency": "inconclusive: 17.8 µM [inhibitor, partial curve, poor fit]"}, {"smiles": "CC(C)(C)c1ccccc1OCCOCCNCc1ccccc1", "Potency": "inconclusive: 29.1 µM [inhibitor, single point]"}]}]}
